# How the values were obtained:
# [1] = tested on: cerebral Aβ42 levels in APPtg mice; test: Cerebral Aβ42 levels in APPtg mice after oral treatment; assay type: in vivo
# Protocol: (§1) APPtg mice at 3 to 4 months of age were used. A compound of formula (IA) was prepared and administered in a suspension of 0.5% Tylose solution.
# (§2) Controls were treated with Tylose only. Each group consisted of 12 or 13 mice with equal numbers of each sex. In the short term study, the animals were treated for the time period of 2.5 days. Twice a day, a dose of 3 mg/kg was applied with interruption times of 11.5-12.5 hours. On the last day (day of sacrifice), one dose of 3 mg/kg was administered and the mice were sacrificed 5.5 hours later. […] In a second long term four weeks study, 3 mg/kg/day of compound of formula IA were administered, subdivided into two subdoses, with an interruption time of 10-12 hours during the day. Each version of the in vivo experiments has been performed once.
# (§3) The murine brains were rapidly removed from the skull and divided along the medial fissure. The cerebellum was removed before each half was quickly frozen down on a metal plate that had been cooled down on dry ice. Brains were placed in Eppendorf tubes, frozen in liquid nitrogen, and stored at −80° C. until needed for Aβ extractions or compound measurements.
# (§4) Brains were thawed on ice. […] The post nuclear supernatants containing the soluble Aβ were collected and measured in a Sandwich ELISA (s.a.). […]
# [2] = tested on: cerebral Aβ40 levels in APPtg mice; test: Cerebral Aβ40 levels in APPtg mice after oral treatment; assay type: in vivo
# Protocol: as §1, §2, §3, §4
# [3] = per os, 2 weeks, 3.3 mg/kg/day, mean ± SEM
smiles,measurement,setting,value
"COc1cc2c(cc1OC)C(=O)C(CC1CCN(Cc3ccccc3)CC1)C2 (stereo not shown) [Donepezil, reference compound]","Level of Aβ42, reduction (−) and/or stimulation (+) of cerebral Aβ levels",[1]; [3],−7.6 ± 7.1%
same,decrease of Aβ42 levels,"[1]; two weeks, 3.3 mg/kg once a day, p=0.402",7.6%
same,"Level of Aβ40, reduction (−) and/or stimulation (+) of cerebral Aβ levels",[2]; [3],+9.6 ± 3.1 %
same,increase of Aβ40 levels,"[2]; two weeks, 3.3 mg/kg once a day, p=0.022",9.6%
